Results deposited as PubChem BioAssay AID652272 (Drosophila RNAi Screening Center, 2013).

- Assay: 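Finding fly genes that regulate Hedgehog signal transduction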 (primary screen)
- Cells: Drosophila clone 8 (Cl8) cells
- Reagents: long dsRNA against Drosophila genes
- Measurement: 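Plate reader light from a firefly reporter under a ptc promoter fragment that responds to Hedgehog, with Renilla light as transfection reference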
- Scale: firefly Hh reporter signal: higher = more ptc reporter light; Renilla reference signal: higher = more Renilla control light
- Hit rule: 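Hit when the z-score averaged over two replicates is under -2 or over +3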
- Meaning of the calls: active = hit: reporter lowered or raised; inactive = not a hit
The screen tested about 21,000 reagents; below is a random part of those that have a named target and a result. Over the whole deposit, 503 (2.4%) are marked active. 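Raw plate light values, not normalised; calls rest on replicate z-scores that were not deposited; hits include reporter decreases as well as increases.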 A number with no mark means an inactive call. The record does not give: the amount of reagent, the time to read-out.

target gene | DRSC id | firefly Hh reporter signal, replicate 1 | firefly Hh reporter signal, replicate 2 | firefly Hh reporter signal, replicate 3 | Renilla reference signal, replicate 1 | Renilla reference signal, replicate 2
Dref | DRSC03319 | 70016 (active) | 39536 | – | 1346 | 944
CG10343 | DRSC02041 | 70333 | 38137 | – | 1050 | 3552
Mtr3 | DRSC10953 | 79704 | 80106 | – | 3025 | 2587
aux | DRSC12161 | 1.49e5 | 1.37e5 | – | 6210 | 5273
Eig71Ec | DRSC11150 | 1.32e5 | – | – | 5504 | 3880
CG14543 | DRSC14887 | 3.69e5 | 68928 | – | 21403 | 2371
dpr11 | DRSC12561 | 49896 | 71954 | – | 1803 | 2002
dpr11 | DRSC12562 | 1.03e5 | 1.38e5 | – | 3931 | 3945
dpr11 | DRSC12563 | 70595 | 1.05e5 | – | 2599 | 3244
CG4168 | DRSC01446 | 1.51e5 | 2.71e5 | – | 4331 | 13307
CG4168 | DRSC01447 | 1.10e5 | 1.98e5 | – | 3232 | 9860
CG4168 | DRSC01933 | 62476 | 62081 | – | 2624 | 2710
CanA-14F | DRSC20211 | 49850 | 1.08e5 | – | 1538 | 3104
CG17564 | DRSC02626 | 73341 | 58569 | – | 1738 | 4748
Nepl16 | DRSC14650 | 4.59e5 | 86041 | – | 23835 | 2365
CG3436 | DRSC00605 | 49223 (active) | 38438 | – | 3072 | 2860
phr6-4 | DRSC03589 | 91488 | 61163 | – | 2672 | 4944
mRpL38 | DRSC19734 | 66807 | 2.19e5 | – | 2233 | 9540
cib | DRSC18660 | 5.58e5 | 1.07e5 | 1.85e5 | 4320 | 3787
hppy | DRSC07014 | 64935 | 71544 | – | 960 | 5127
hppy | DRSC07015 | 74355 | 88493 | – | 1200 | 6156
hppy | DRSC07016 | 48704 | 58646 | – | 864 | 3288
stil | DRSC07699 | 75315 | 34272 | – | 3532 | 1508
Gpb5 | DRSC21241 | 7.91e5 | 2.30e5 | – | 42354 | 5428
Trf4 | DRSC00729 | 1.15e5 | 68596 | – | 2864 | 1716
Tep3 | DRSC03452 | 1.16e5 | 57450 | – | 3600 | 3396
Cpr65Av | DRSC09727 | 88448 | 87529 | – | 9555 | 6729
RpL7A | DRSC18709 | 22902 (active) | 44744 | – | 1595 | 4555

Records listed so far marked active:
target gene | DRSC id | firefly Hh reporter signal, replicate 1 | firefly Hh reporter signal, replicate 2 | firefly Hh reporter signal, replicate 3 | Renilla reference signal, replicate 1 | Renilla reference signal, replicate 2
Dref | DRSC03319 | 70016 (active) | 39536 | – | 1346 | 944
CG3436 | DRSC00605 | 49223 (active) | 38438 | – | 3072 | 2860
RpL7A | DRSC18709 | 22902 (active) | 44744 | – | 1595 | 4555

More reagents:
target gene | DRSC id | firefly Hh reporter signal, replicate 1 | firefly Hh reporter signal, replicate 2 | firefly Hh reporter signal, replicate 3 | Renilla reference signal, replicate 1 | Renilla reference signal, replicate 2
dpr8 | DRSC19406 | 58696 | 1.81e5 | – | 2281 | 8232
dpr8 | DRSC19600 | 79575 | 1.34e5 | – | 2253 | 6064
dpr8 | DRSC19938 | 92536 | 1.82e5 | – | 2482 | 7443
dpr8 | DRSC19939 | 88407 | 1.87e5 | – | 2816 | 8663
Spn43Ad | DRSC06770 | 93176 | 26823 | – | 2272 | 2451
CG42562 | DRSC06453 | 1.35e5 | 59786 | – | 3768 | 4369
Usp32 | DRSC10979 | 1.01e5 | 1.11e5 | – | 3452 | 2906
ath | DRSC02788 | 74480 | 52422 | – | 2165 | 4704
CG14285 | DRSC14766 | 5.45e5 | 1.12e5 | – | 33296 | 3053
CG10600 | DRSC02074 | 60274 | 48337 | – | 2417 | 2055
CG5612 | DRSC15844 | 1.03e5 | 95936 | – | 2051 | 2368
CG9536 | DRSC03254 | 62472 | 76677 | – | 2912 | 2755
Jon25Biii | DRSC03115 | 1.36e5 | 58821 | – | 3340 | 6259
CG12860 | DRSC06200 | 87824 | 42803 | – | 2186 | 3563
CheA84a | DRSC12669 | 1.78e5 | – | – | 3890 | –
CG13590 | DRSC04226 | 1.20e5 | 91750 | – | 2743 | 8146
CG12398 | DRSC19454 | 72664 | 37731 | – | 4802 | 1272
ZnT49B | DRSC07225 | 1.04e5 | 59397 | – | 2480 | 3705
ouib | DRSC14376 | 70945 | 88234 | – | 2201 | 7813
CG42535 | DRSC09041 | 91235 | 2.66e5 | – | 2475 | 10469
Cpr11B | DRSC19859 | 1.10e5 | 66017 | – | 2546 | 1712
CG5921 | DRSC17431 | 6.17e5 | 2.35e5 | – | 34754 | 4554
CG5921 | DRSC18390 | 52036 | 1.62e5 | – | 1304 | 6955
Gyc89Db | DRSC15009 | 1.13e5 | 1.25e5 | – | 3752 | 4268
drm | DRSC00277 | 1.59e5 | 63392 | – | 4059 | 6778
Chd3 | DRSC11114 | 98695 | 1.22e5 | – | 4379 | 2385
msl-2 | DRSC00829 | 99941 | 66480 | – | 4933 | 2912
CG5928 | DRSC18391 | 1.08e5 | 5.73e5 | 3.13e5 | 2995 | 4089
mri | DRSC08259 | 1.09e5 | 52822 | – | 4119 | 2100
